# Assay results reported in PubChem BioAssay AID588590 (National Center for Advancing Translational Sciences (NCATS), 2011).
# Chains of the proteins cited; added tags and fusions are not shown. Lines headed by an entry give the natural chain unless they say otherwise; changes in a name come on top.
# UniProt Q9UNA4: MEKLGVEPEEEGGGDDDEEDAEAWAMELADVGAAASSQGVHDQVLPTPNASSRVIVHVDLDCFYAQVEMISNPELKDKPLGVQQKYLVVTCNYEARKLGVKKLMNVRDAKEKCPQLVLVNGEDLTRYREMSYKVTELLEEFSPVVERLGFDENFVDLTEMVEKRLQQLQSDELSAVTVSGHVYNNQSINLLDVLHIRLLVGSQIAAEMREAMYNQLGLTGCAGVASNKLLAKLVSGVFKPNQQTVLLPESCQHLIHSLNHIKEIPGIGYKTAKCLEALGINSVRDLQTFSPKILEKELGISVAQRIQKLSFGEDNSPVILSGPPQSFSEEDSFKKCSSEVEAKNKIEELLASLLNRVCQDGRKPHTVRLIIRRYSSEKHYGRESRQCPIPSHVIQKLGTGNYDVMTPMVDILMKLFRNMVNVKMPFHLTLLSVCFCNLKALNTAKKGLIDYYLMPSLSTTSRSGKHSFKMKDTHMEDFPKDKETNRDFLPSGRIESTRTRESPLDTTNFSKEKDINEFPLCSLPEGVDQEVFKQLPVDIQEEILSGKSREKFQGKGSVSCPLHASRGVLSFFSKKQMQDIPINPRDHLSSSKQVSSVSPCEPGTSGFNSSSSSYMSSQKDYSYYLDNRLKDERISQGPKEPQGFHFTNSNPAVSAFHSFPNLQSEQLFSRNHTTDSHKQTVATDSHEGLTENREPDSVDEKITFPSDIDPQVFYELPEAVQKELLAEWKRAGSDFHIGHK
# Where “and” joins values, the source holds several entries; their conditions need not be identical. Identical values can stand only once. In all, about 390,000 compounds went through this assay and about 4,000 (1%) were called active. The inconclusive results got no clear call from the source; some entries with a clear call stand among them for comparison. Calls follow the shape of the dose curve; as a rule, active = well fitted inhibition curve with a large enough effect; inconclusive = small, poorly fitted or top-dose-only effect, or another doubt; inactive = no such curve, though single readings can be large or run the other way. A potency beside an inconclusive call is a rough fit, not a confirmed value.
# Biological target: DNA polymerase iota (Homo sapiens) (UniProt Q9UNA4)
# Assay: qHTS for Inhibitors of Polymerase Iota
# Settings: Pol iota fluorescent replication assay, 10 min; series mostly up to 115 µM
# Procedure, shortened: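 Fluorescent replication assay read twice, at 0 min and 10 min after adding 50 nM (final) substrate. Enzyme (10 nM) and compounds were first incubated 15 min at room temperature; enzyme-free buffer wells were negative controls.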
# Potency is read from the fitted curve at half-maximal effect.
row,Compound,Potency
1,O=c1[nH]c2ccc(S(=O)(=O)Nc3cc(Cl)ccc3O)cc2o1,"inconclusive: 56.2 µM [inhibitor, partial curve, poor fit]"
2,Cc1nnsc1C(=O)NCc1c(F)cccc1Cl,"inconclusive: 31.6 µM [inhibitor, partial curve, poor fit]"
3,N#Cc1c(NC(=O)CSc2ncccn2)oc(-c2ccccc2)c1-c1ccccc1,"inconclusive: 28.2 µM [inhibitor, full curve, poor fit]"
4,NS(=O)(=O)c1ccc(CCNC(=O)CCn2c(=O)c3cccn3c3cccnc32)cc1,inactive
5,O=C(COC(=O)c1cc(Br)ccc1O)NNC(=O)c1ccc([N+](=O)[O-])cc1,"inconclusive: 70.8 µM [inhibitor, single point]"
6,Nc1c(C=C2C=CC(=O)C=C2)c(=O)nc2sc(CC(=O)N3CCCCC3)nn12,"inconclusive: 15.8 µM [inhibitor, full curve, poor fit]"
7,CC(CNC(=O)c1cc2ccccn2n1)c1ccccc1 (stereo not given),inactive
8,CC(C)(C)OC(=O)NCc1ccc(NC(=O)c2nc[nH]c2C(=O)NCCN(CCNC(=O)c2[nH]cnc2C(=O)Nc2ccc(CNC(=O)OC(C)(C)C)cc2)CCNC(=O)c2[nH]cnc2C(=O)Nc2ccc(CNC(=O)OC(C)(C)C)cc2)cc1,"inconclusive: 100 µM [inhibitor, single point]"
9,CNC(=O)CN1C(=O)CSc2nc(C)cc(C)c21,"inconclusive: 8.91 µM [inhibitor, partial curve, poor fit]"
10,C=CCNc1nc(Cl)nc(Nc2ccc(OC)cc2)n1,"inconclusive: 89.1 µM [inhibitor, single point]"
11,O=C(O)c1cccc(Sc2cc(Cl)ccc2C(=O)O)c1,"inconclusive: 39.8 µM [inhibitor, partial curve, poor fit]"
12,O=C(c1cc(O)c(O)c([N+](=O)[O-])c1)c1ccccc1F,"inactive and inconclusive: 44.7 µM [inhibitor, partial curve, poor fit]"
13,COc1ccc(-c2ccc(/C=C3/C(=N)N4C=CSC4=NC3=O)o2)c([N+](=O)[O-])c1,"inconclusive: 15.8 µM [inhibitor, full curve, poor fit]"
14,NC(=O)C1CCN(c2nc(-c3ccccc3-c3ccccc3)cs2)CC1,"inconclusive: 10 µM [inhibitor, full curve]"
15,COC(=O)c1cc(COc2ccc3ccc(=O)oc3c2)c(C)o1,inactive
16,Nc1ccc(N2CCN(C(=O)c3ccco3)CC2)cc1,"inconclusive: 70.8 µM [inhibitor, partial curve]"
17,CCc1ccc(OC(=O)c2sc3ncn(Cc4cccc(F)c4)c(=O)c3c2C)cc1,inactive
18,Cn1nnnc1SCCNC(=O)C1CCC(=O)N(CCc2cccc(F)c2)C1 (stereo not given),"inconclusive: 22.4 µM [inhibitor, partial curve, poor fit]"
19,CCOc1ccc(NC(=O)Cn2cncc2-c2ccc([N+](=O)[O-])cc2)cc1,"inconclusive: 89.1 µM [inhibitor, partial curve, poor fit]"
20,COc1cc(/C=C2/C(=N)N3OC(C)=CC3=NC2=O)ccc1OC(=O)c1ccco1,inactive

row,Compound,Potency
1,CC(NC(=O)c1ccco1)C1COc2ccccc2O1 (stereo not given),"inconclusive: 28.2 µM [inhibitor, full curve, poor fit]"
2,O=C(CC(=O)Nc1ccccc1F)Nc1ccc2nc3n(c(=O)c2c1)CCCCC3,inactive
3,CCOc1ccc(CCNC(=O)CCSCc2cccc(Cl)c2)cc1OCC,inactive
4,COC(=O)c1c(NS(=O)(=O)Cc2ccccc2)sc2c1CCCC2,inactive
5,Cc1sc2c(c1C)C(O)=C(C(=O)Nc1ccccc1)S(=O)(=O)N2C,"inconclusive: 35.5 µM [inhibitor, partial curve, poor fit]"
6,CCc1cccc(CC)c1NC(=S)N1CCn2cccc2C1c1ccncc1 (stereo not given),"inconclusive: 89.1 µM [inhibitor, single point]"
7,O=C1c2ccccc2NC(c2cccc(F)c2)N1Cc1ccccc1 (stereo not given),inactive
8,CCOc1ccc2ccccc2c1/C=N/NC(=O)CNC(=O)Cc1ccccc1,"inconclusive: 39.8 µM [inhibitor, partial curve, poor fit]"
9,O=[N+]([O-])c1ccc(Cl)cc1C=NNc1ccccn1,inactive
10,CSc1ccc(-c2sc(Nc3ccccc3)n[n+]2-c2ccccc2)cc1,"inconclusive: 25.1 µM [inhibitor, partial curve, poor fit]"
11,O=C(CN1CCOCC1)Nc1ccccc1,"inconclusive: 100 µM [inhibitor, partial curve, poor fit]"
12,O=C(COc1cccc2cccnc12)Nc1cccc(S(=O)(=O)N2CCCC2)c1,"inconclusive: 15.8 µM [inhibitor, full curve, poor fit]"
13,CCc1ccccc1NC(=O)C1CCCN1S(=O)(=O)c1ccc(-c2ccc(=O)[nH]n2)s1 (stereo not given),"inconclusive: 56.2 µM [inhibitor, partial curve, poor fit]"
14,CC1COC(=O)C(NNc2ccc(Cl)c(Cl)c2)=N1 (stereo not given),"inconclusive: 39.8 µM [inhibitor, single point]"
15,N#C/C(=C\c1ccc([N+](=O)[O-])o1)C(=O)Nc1ccc(F)cc1,"inconclusive: 12.6 µM [inhibitor, full curve, poor fit]"
16,COc1ccc(N2CC(C(=O)Nc3ccccc3-c3nc(-c4ccc(C)cc4)no3)CC2=O)cc1 (stereo not given),"inconclusive: 31.6 µM [inhibitor, single point]"
17,CC(C)(CO)[C@@H](O)C(=O)NCCC(=O)O,"inconclusive: 63.1 µM [inhibitor, partial curve, poor fit]"
18,O=C(OCC1OC(n2ncc(=O)[nH]c2=O)C(OC(=O)c2ccccc2)C1OC(=O)c1ccccc1)c1ccccc1 (stereo not given),"inconclusive: 25.1 µM [inhibitor, full curve]"
19,CC(C)(C)c1ccc(-n2nc(C#N)c(Cl)cc2=O)cc1,"inconclusive: 28.2 µM [inhibitor, partial curve, poor fit]"
20,CCCCCC(=O)NNC(=O)c1ccc(-c2ccccc2)cc1,"inconclusive: 14.1 µM [inhibitor, full curve, poor fit]"
